PubChem BioAssay AID1224830 | NIAID, 2016

Aim: 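Host factors that control LPS-induced TNF expression in human macrophages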 (primary screen)
System: human THP-1 monocytic leukaemia cells, TNF dual-luciferase reporter clone, PMA-differentiated to macrophage-like cells
Reagents: siRNA pool against human genes, 50 nM
Duration: LPS for 4 h, given about 3 days after siRNA transfection
Challenge: bacterial LPS (TLR4 ligand), 10 ng/ml
Measurement: 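TNF firefly reporter luminescence divided by renilla, normalised to the plate median, then turned into a robust z-score for each replicate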
Direction: TNF reporter robust z-score: higher = stronger TNF reporter response to LPS
Hit rule: 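a well is active when its z-score exceeds 2.8 or falls below -1.5; control wells carry no call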
This is a random part of about 18,000 reagents tested. About 2,900 of them (16%) were called active. 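Calls are made per well; low scores hint the gene aids the LPS response, high scores that it dampens it.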 Repeated entries: four replicate wells of each siRNA pool.

| TNF reporter robust z-score | Call | Target gene |
| --- | --- | --- |
| -0.62 | inactive | TMEM216 (GeneID 51259) |
| -0.41 | inactive | TMEM216 (GeneID 51259) |
| -0.69 | inactive | TMEM216 (GeneID 51259) |
| -1.18 | inactive | TMEM216 (GeneID 51259) |
| 0.2 | inactive | CREBZF (GeneID 58487) |
| 0.42 | inactive | CREBZF (GeneID 58487) |
| -0.21 | inactive | CREBZF (GeneID 58487) |
| 0.57 | inactive | CREBZF (GeneID 58487) |
| 0.15 | inactive | NLRP5 (GeneID 126206) |
| -0.53 | inactive | NLRP5 (GeneID 126206) |
| -0.39 | inactive | NLRP5 (GeneID 126206) |
| -0.68 | inactive | NLRP5 (GeneID 126206) |
| -1.06 | inactive | ZNF280D (GeneID 54816) |
| 1.06 | inactive | ZNF280D (GeneID 54816) |
| -0.38 | inactive | ZNF280D (GeneID 54816) |
| -1.02 | inactive | ZNF280D (GeneID 54816) |
| 0.63 | inactive | PCOLCE (GeneID 5118) |
| 0.41 | inactive | PCOLCE (GeneID 5118) |
| 0.17 | inactive | PCOLCE (GeneID 5118) |
| 2.04 | inactive | PTPRT (GeneID 11122) |
| -0.66 | inactive | PTPRT (GeneID 11122) |
| -0.01 | inactive | PTPRT (GeneID 11122) |
| 1.25 | inactive | PTPRT (GeneID 11122) |
| 2.14 | inactive | OR4D10 (GeneID 390197) |
| 2.71 | inactive | OR4D10 (GeneID 390197) |
| -0.09 | inactive | OR4D10 (GeneID 390197) |
| -0.75 | inactive | OR4D10 (GeneID 390197) |
| – | inactive | MRPL39 (GeneID 54148) |
| -0.02 | inactive | MRPL39 (GeneID 54148) |
| -0.48 | inactive | MRPL39 (GeneID 54148) |
| -0.6 | inactive | MRPL39 (GeneID 54148) |
| 0.02 | inactive | MRPL39 (GeneID 54148) |
| -0.76 | inactive | POMGNT1 (GeneID 55624) |
| -0.54 | inactive | POMGNT1 (GeneID 55624) |
| 0.03 | inactive | POMGNT1 (GeneID 55624) |
| 0.05 | inactive | POMGNT1 (GeneID 55624) |
| -0.1 | inactive | C4orf51 (GeneID 646603) |
| -0.03 | inactive | C4orf51 (GeneID 646603) |
| -0.04 | inactive | C4orf51 (GeneID 646603) |
| -0.05 | inactive | C4orf51 (GeneID 646603) |
| -0.15 | inactive | CMTM8 (GeneID 152189) |
| 0.14 | inactive | CMTM8 (GeneID 152189) |
| -0.04 | inactive | CMTM8 (GeneID 152189) |
| -0.51 | inactive | CMTM8 (GeneID 152189) |
| 0.6 | inactive | OR5A1 (GeneID 219982) |
| 1.13 | inactive | OR5A1 (GeneID 219982) |
| 0.78 | inactive | OR5A1 (GeneID 219982) |
| 1.12 | inactive | OR5A1 (GeneID 219982) |
| -1.12 | inactive | METRNL (GeneID 284207) |
| -1.26 | inactive | METRNL (GeneID 284207) |
| -0.98 | inactive | METRNL (GeneID 284207) |
| -0.65 | inactive | METRNL (GeneID 284207) |
| -0.97 | inactive | IL1RN (GeneID 3557) |
| -0.39 | inactive | IL1RN (GeneID 3557) |
| -1.13 | inactive | IL1RN (GeneID 3557) |
| -1.15 | inactive | IL1RN (GeneID 3557) |
| -0.65 | inactive | PPP1R2 (GeneID 5504) |
| -0.01 | inactive | PPP1R2 (GeneID 5504) |
| -0.72 | inactive | PPP1R2 (GeneID 5504) |
| -0.62 | inactive | PPP1R2 (GeneID 5504) |
| 0.17 | inactive | CCDC162P (GeneID 221262) |
| 1.16 | inactive | CCDC162P (GeneID 221262) |
| 0.89 | inactive | CCDC162P (GeneID 221262) |
| 1.52 | inactive | CCDC162P (GeneID 221262) |
| -0.71 | inactive | EOLA2 (GeneID 541578) |
| 2.28 | inactive | EOLA2 (GeneID 541578) |
| -0.24 | inactive | EOLA2 (GeneID 541578) |
| 0.96 | inactive | EOLA2 (GeneID 541578) |
| -0.29 | inactive | DIRC1 (GeneID 116093) |
| -0.54 | inactive | DIRC1 (GeneID 116093) |
| -0.24 | inactive | DIRC1 (GeneID 116093) |
| 1.13 | inactive | DIRC1 (GeneID 116093) |
| 0.75 | inactive | GRHL3 (GeneID 57822) |
| 0.7 | inactive | GRHL3 (GeneID 57822) |
| 0.39 | inactive | GRHL3 (GeneID 57822) |
| 0.15 | inactive | GRHL3 (GeneID 57822) |
| 0.42 | inactive | TBC1D13 (GeneID 54662) |
| 0.2 | inactive | TBC1D13 (GeneID 54662) |
| -0.93 | inactive | TBC1D13 (GeneID 54662) |
| 0.93 | inactive | TBC1D13 (GeneID 54662) |
| -0.74 | inactive | UBXN11 (GeneID 91544) |
| -1.04 | inactive | UBXN11 (GeneID 91544) |
| -0.69 | inactive | UBXN11 (GeneID 91544) |
| -1.48 | inactive | UBXN11 (GeneID 91544) |
| -0.13 | inactive | PDX1 (GeneID 3651) |
| 0 | inactive | PDX1 (GeneID 3651) |
| 0.02 | inactive | PDX1 (GeneID 3651) |
| 0.3 | inactive | PDX1 (GeneID 3651) |
| -1.41 | inactive | SPATA19 (GeneID 219938) |
| -1.71 | active | SPATA19 (GeneID 219938) |
| -0.16 | inactive | SPATA19 (GeneID 219938) |
| -1.42 | inactive | SPATA19 (GeneID 219938) |
| 1.19 | inactive | RAB13 (GeneID 5872) |
| 0.93 | inactive | RAB13 (GeneID 5872) |
| 1.18 | inactive | RAB13 (GeneID 5872) |
| 1.07 | inactive | RAB13 (GeneID 5872) |
| -1.64 | active | ENPP6 (GeneID 133121) |
| -1.58 | active | ENPP6 (GeneID 133121) |
| -2.13 | active | ENPP6 (GeneID 133121) |
| -2.06 | active | ENPP6 (GeneID 133121) |
| -0.17 | inactive | ZNF707 (GeneID 286075) |
| 0.87 | inactive | ZNF707 (GeneID 286075) |
| 0.73 | inactive | ZNF707 (GeneID 286075) |
| 1.08 | inactive | ZNF707 (GeneID 286075) |
| 0.03 | inactive | FAM13A (GeneID 10144) |
| -0.5 | inactive | FAM13A (GeneID 10144) |
| -0.18 | inactive | FAM13A (GeneID 10144) |
| 0.02 | inactive | FAM13A (GeneID 10144) |
| -0.81 | inactive | SLF1 (GeneID 84250) |
| -1.47 | inactive | SLF1 (GeneID 84250) |
| -0.5 | inactive | SLF1 (GeneID 84250) |
| -0.85 | inactive | SLF1 (GeneID 84250) |

18 of these entries, set out differently:
TNF reporter robust z-score | Call | Target gene
-1.04 | inactive | UBXN11 (GeneID 91544)
-0.69 | inactive | UBXN11 (GeneID 91544)
-1.48 | inactive | UBXN11 (GeneID 91544)
-0.13 | inactive | PDX1 (GeneID 3651)
0 | inactive | PDX1 (GeneID 3651)
0.02 | inactive | PDX1 (GeneID 3651)
0.3 | inactive | PDX1 (GeneID 3651)
-1.41 | inactive | SPATA19 (GeneID 219938)
-1.71 | active | SPATA19 (GeneID 219938)
-0.16 | inactive | SPATA19 (GeneID 219938)
-1.42 | inactive | SPATA19 (GeneID 219938)
1.19 | inactive | RAB13 (GeneID 5872)
0.93 | inactive | RAB13 (GeneID 5872)
1.18 | inactive | RAB13 (GeneID 5872)
1.07 | inactive | RAB13 (GeneID 5872)
-1.64 | active | ENPP6 (GeneID 133121)
-1.58 | active | ENPP6 (GeneID 133121)
-2.13 | active | ENPP6 (GeneID 133121)
